# Percent effect of library compounds

Chains of the proteins cited; added tags and fusions are not shown. Residues count along the entry.
UniProt Q8IDJ8, 1-583: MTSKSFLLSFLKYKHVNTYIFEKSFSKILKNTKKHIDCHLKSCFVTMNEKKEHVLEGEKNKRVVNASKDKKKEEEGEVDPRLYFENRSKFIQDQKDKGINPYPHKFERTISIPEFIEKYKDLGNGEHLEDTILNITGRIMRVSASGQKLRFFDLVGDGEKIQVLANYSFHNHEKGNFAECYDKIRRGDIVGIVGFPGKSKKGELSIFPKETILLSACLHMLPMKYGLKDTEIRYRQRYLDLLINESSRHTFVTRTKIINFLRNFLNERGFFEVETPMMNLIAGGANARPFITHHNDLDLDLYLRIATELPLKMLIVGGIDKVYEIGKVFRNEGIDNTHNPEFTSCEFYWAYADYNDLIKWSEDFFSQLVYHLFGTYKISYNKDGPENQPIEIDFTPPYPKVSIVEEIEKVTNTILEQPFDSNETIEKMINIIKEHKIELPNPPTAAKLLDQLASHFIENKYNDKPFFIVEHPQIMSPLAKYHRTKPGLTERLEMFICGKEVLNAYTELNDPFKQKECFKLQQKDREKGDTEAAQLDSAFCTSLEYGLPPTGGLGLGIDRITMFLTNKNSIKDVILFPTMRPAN
UniProt I6X8D2, whole entry: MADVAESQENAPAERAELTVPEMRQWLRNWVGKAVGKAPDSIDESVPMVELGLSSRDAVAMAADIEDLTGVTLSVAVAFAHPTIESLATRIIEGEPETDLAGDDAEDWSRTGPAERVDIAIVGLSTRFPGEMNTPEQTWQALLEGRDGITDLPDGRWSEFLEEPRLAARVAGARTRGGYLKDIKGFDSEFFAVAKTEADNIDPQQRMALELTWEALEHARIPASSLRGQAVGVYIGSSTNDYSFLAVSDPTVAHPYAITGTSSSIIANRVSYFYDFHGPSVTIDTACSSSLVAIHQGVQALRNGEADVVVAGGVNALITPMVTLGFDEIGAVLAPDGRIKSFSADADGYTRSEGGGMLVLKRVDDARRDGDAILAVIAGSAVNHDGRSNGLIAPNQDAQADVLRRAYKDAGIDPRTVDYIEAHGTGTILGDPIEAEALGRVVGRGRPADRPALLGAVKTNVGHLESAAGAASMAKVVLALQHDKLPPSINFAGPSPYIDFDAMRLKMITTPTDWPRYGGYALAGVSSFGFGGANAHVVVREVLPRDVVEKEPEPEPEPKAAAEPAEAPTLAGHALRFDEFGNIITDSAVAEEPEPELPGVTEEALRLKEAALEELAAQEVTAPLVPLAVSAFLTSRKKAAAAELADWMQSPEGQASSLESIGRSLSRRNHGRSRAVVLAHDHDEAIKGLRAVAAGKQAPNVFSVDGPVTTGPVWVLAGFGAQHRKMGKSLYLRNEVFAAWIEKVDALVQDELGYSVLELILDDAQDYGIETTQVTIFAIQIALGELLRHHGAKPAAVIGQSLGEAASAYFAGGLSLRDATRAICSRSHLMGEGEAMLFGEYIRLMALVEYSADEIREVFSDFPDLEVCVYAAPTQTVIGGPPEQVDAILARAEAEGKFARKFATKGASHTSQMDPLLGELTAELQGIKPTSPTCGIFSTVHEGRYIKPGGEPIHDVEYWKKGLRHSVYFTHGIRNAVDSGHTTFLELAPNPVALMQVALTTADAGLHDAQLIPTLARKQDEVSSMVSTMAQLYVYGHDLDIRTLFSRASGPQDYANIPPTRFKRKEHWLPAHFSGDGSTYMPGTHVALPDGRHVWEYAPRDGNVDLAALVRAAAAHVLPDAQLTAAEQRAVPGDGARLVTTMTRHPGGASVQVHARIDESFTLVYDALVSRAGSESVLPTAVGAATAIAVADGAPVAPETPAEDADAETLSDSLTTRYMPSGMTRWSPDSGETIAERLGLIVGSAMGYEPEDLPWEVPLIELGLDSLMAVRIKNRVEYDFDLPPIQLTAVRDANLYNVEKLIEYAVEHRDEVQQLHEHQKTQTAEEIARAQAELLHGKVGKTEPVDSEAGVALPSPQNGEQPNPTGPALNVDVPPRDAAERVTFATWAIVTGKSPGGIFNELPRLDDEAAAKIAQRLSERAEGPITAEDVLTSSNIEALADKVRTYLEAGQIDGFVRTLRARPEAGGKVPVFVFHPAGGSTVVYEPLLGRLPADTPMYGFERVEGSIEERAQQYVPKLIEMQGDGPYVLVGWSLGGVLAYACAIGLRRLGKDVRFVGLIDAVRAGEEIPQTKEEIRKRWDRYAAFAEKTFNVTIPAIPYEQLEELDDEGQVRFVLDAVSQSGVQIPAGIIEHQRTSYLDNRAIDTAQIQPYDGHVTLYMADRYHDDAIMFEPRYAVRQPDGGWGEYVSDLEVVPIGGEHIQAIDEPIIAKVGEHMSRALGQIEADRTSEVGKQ
UniProt P9WFT3, whole entry: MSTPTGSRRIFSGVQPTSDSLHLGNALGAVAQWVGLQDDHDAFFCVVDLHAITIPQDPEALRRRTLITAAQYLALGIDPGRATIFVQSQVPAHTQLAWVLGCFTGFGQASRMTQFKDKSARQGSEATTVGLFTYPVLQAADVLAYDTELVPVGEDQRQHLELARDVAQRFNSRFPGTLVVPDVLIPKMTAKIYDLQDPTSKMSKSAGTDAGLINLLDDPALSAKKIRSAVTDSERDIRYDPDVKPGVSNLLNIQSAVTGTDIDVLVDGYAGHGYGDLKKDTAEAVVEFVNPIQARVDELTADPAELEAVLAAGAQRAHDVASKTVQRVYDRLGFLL
UniProt Q4DA54, 1-478: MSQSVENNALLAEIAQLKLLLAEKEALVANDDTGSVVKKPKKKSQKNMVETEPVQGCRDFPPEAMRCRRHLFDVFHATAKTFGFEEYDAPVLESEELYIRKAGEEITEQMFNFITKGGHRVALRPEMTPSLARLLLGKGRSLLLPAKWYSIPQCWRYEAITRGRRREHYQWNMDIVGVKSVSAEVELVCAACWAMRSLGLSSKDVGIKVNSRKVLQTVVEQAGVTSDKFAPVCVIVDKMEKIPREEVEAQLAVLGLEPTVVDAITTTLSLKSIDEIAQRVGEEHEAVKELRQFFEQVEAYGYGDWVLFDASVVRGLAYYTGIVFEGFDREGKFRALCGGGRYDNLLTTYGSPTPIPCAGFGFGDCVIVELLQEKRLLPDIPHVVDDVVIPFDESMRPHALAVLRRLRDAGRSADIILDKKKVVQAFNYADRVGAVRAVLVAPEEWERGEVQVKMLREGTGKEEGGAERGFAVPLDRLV

PfKRS1: 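Lysine-tRNA ligase, Plasmodium falciparum 3D7 (UniProt Q8IDJ8). Enzyme assay of the cytosolic lysyl-tRNA synthetase in 384-well plates, read by luminescence. Concentration: 30 µM. Higher reads as stronger inhibition, judged from the few compounds that gave an IC50. About 69,000 compounds were tested under these conditions; 0.071% (about 49) showed 50% or more at least once.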
Pks13 thioesterase: 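Polyketide synthase Pks13, Mycobacterium tuberculosis (UniProt I6X8D2). Enzyme assay of the thioesterase domain of polyketide synthase 13; the read-out is not stated. Compounds at 30 µM. Higher reads as stronger inhibition (inferred from which compounds were picked for retests). Size under these conditions: about 67,000 compounds, about 300 of them at 50% or above in at least one test.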
MtTrpRS: 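Tryptophan-tRNA ligase, Mycobacterium tuberculosis (UniProt P9WFT3). Enzyme assay of tryptophanyl-tRNA synthetase; the read-out is not stated. Tested at 10 µM. Higher most likely means stronger inhibition; the record gives no direction and few retests gave an IC50. Size under these conditions: about 65,000 compounds, about 64 of them at 50% or above in at least one test.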
TcHisRS: 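Enzyme assay of histidyl-tRNA synthetase; the read-out is not stated. Target: Histidine-tRNA ligase, Trypanosoma cruzi CL Brener (UniProt Q4DA54). Tested at 30 µM. Higher reads as stronger inhibition (inferred: compounds with an IC50 in retests scored well above the rest). About 69,000 compounds were tested under these conditions; 0.045% (about 31) showed 50% or more at least once.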

Values are the deposited “Percent Effect”, in %. The controls that fix the scale are not given in the record; negative values are as filed. The compounds are a random part of those screened. A dash means the value is not listed here; it may have been measured.

SMILES,PfKRS1,Pks13 thioesterase,MtTrpRS,TcHisRS
CC1CCN(C(=O)[C@H]2C[C@@H]3CCN(CC4CCOCC4)C[C@@H]3O2)CC1,-1.84%,-18.43%,0.7319%,4.598%
O=C(c1ccccc1F)N1CC2(CCNCC2)c2cc(Cl)ccc21,7.598%,-18.39%,-3.98%,6.25%
CCCN1CCC(NC(=O)c2ccc(F)cc2I)CC1,7.071%,17.75%,0.5687%,2.439%
CC(Cn1cccn1)NC(=O)c1cc(C2CC2)nc2c1cnn2C (stereo not given),0.9101%,-1.675%,5.75%,2.591%
CC(=O)Nc1nc(CN2CCCC2Cn2cc(C)cn2)cs1 (stereo not given),-4.326%,-6.478%,5.082%,-0.3774%
NC(=O)C1CCN(c2ncccc2C(=O)N2CCc3ccccc32)C1 (stereo not given),8.677%,-21.65%,0.1361%,3.571%
O=C(CCN1CCCC1c1cccc2c1OCCO2)N1CCCCC1 (stereo not given),4.575%,-5.22%,1.955%,13.33%
CC(Sc1n[nH]c(-c2ccc3c(c2)CCC3)n1)C(N)=O (stereo not given),7.594%,-15.03%,0.1971%,3.982%
CNC(=O)c1ccc(C(=O)N2CCCC(n3ccnc3)C2)cn1 (stereo not given),0.02021%,-11.18%,1.753%,2.299%
O=C1CC(c2ccccc2)c2c(c(C(=O)O)cn2-c2ccccc2)N1 (stereo not given),5.515%,-2.08%,4.977%,0.9901%
Cc1csc(CNC(=O)NCCc2ccc3c(c2)OCCO3)n1,0.7092%,-14.47%,1.798%,-2.642%
CCS(=O)(=O)N1C[C@H](c2nc(C)no2)C[C@H]2OCC[C@H]21,0.9293%,5.358%,0.8834%,9.045%
CCOc1ccc(NC(=O)c2scnc2CC)cc1CO,-1.994%,-2.273%,-4.339%,1.911%
CCc1ccc(CN2CCC3(CCCN(C(=O)N(C)C)C3)C2)o1 (stereo not given),0.6924%,11.53%,-1.904%,4.813%
CO[C@H]1CCN(C(=O)c2ccc3[nH]nnc3c2)C[C@@]12CCCO2,-0.2032%,-24.34%,-3.453%,6.513%
O=C(NCCOc1ccc2c(c1)OCO2)N1CCC1,6.873%,-2.136%,4.035%,-0.3802%
C=C(C)COc1cccc(C(=O)N(CC)Cc2nccn2C)c1,-5.377%,-3.231%,6.622%,0%
CC(C)[C@H](N)C(=O)N1CCSc2ccccc2C1,4.214%,-3.499%,4.112%,12%
O=C1CO[C@@H]2CN(CC3CCOCC3)C[C@H]2N1CC1CC1,7.44%,-15.88%,5.667%,3.867%
CCS(=O)(=O)N1CC[C@H]2O[C@H](c3nnc(C)o3)CC[C@H]21,-1.347%,-8.232%,-1.893%,7.882%
CC(C)c1sc(Cl)nc1C(=O)NCc1ccncc1,-2.771%,-28.43%,16.44%,4.167%
O=C(Cc1ccc2c(c1)CCO2)Nc1ccc(-n2cncn2)nc1,-0.1603%,12.67%,4.117%,8.889%
Cc1cn2c(=O)c(-c3ccnc(NC4CCOCC4)n3)cnc2s1,-0.1166%,5.278%,-,3.39%
O=C1NC(c2ccccc2)=N[C@@]12CC[C@@H]1CN(Cc3ccoc3)C[C@@H]12,2.64%,12.44%,-2.138%,4.478%
Cc1ccc(-c2cnc(CCC(=O)NCCN3CCOCC3)o2)cc1C,5.89%,-24.38%,0.4691%,0%
CN1CCCN(C[C@@H]2CN(C(=O)CCC3CCCC3)C[C@@H]2CO)CC1,-2.473%,-16.64%,-1.243%,4.184%
CCN1CCC(NN2CCN(C)CC2)CC1,2.438%,-0.5569%,-5.734%,5.759%
NC(=O)N1CCC2(CC1)CC(=O)N(CC1CCCO1)c1ccccc12 (stereo not given),0.6668%,-29.7%,-1.308%,0.9709%
CC(C)Cn1cnc(S(=O)(=O)NCCc2nnc3ccccn23)c1,-1.332%,21.99%,10.27%,7.843%
CN1CCN(C(=O)c2n[nH]c3c2CCN(Cc2nccs2)C3)CC1,2.976%,-22.1%,-1.274%,4.348%
CN(C)C(=O)c1cccc(CN2CCOC(Cn3cccn3)C2)c1 (stereo not given),1.381%,-13.27%,-0.1947%,4.023%
CCCC(=O)N1CCC(c2nc(O)c3c(n2)CCN(C2CCCC2)C3)C1 (stereo not given),9.711%,5.554%,-,6.383%
Cc1noc(C)c1CN1CC[C@H](OCC2CC2)[C@@H](Cc2ccccc2)C1,-1.672%,-11.45%,-8.477%,7.882%
CN(C)CCOCc1nnc2n1CCN(Cc1ccco1)C2,6.617%,-22.31%,-0.9149%,4.598%
CCC[C@H]1CN(Cc2cc(C#N)n(C)c2C)C[C@@H]1NS(=O)(=O)CC,6.02%,-14.96%,5.094%,0.5291%

Some entries from above, unchanged:

SMILES,PfKRS1,Pks13 thioesterase,MtTrpRS,TcHisRS
CCOc1ccc(NC(=O)c2scnc2CC)cc1CO,-1.994%,-2.273%,-4.339%,1.911%
CCS(=O)(=O)N1CC[C@H]2O[C@H](c3nnc(C)o3)CC[C@H]21,-1.347%,-8.232%,-1.893%,7.882%

The values are deposited in ChEMBL (CHEMBL3988442, “University of Dundee, Small-Polar-MMV Screening Library” (2021)).